Data published in the supplement of paper PMC10849652.
The other results are listed elsewhere or left out.

Protein sequences, listed by entry. Tags and fused reporters are not part of them. Lines headed by an entry give the natural chain unless they say otherwise; changes in a name come on top.
UniProt P28074: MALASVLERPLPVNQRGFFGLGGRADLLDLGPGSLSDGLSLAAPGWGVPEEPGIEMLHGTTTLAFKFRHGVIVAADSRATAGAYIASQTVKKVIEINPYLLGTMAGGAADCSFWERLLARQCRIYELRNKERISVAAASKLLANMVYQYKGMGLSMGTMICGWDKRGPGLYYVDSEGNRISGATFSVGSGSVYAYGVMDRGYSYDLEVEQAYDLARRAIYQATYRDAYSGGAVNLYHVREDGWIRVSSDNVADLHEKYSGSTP
UniProt Q13332: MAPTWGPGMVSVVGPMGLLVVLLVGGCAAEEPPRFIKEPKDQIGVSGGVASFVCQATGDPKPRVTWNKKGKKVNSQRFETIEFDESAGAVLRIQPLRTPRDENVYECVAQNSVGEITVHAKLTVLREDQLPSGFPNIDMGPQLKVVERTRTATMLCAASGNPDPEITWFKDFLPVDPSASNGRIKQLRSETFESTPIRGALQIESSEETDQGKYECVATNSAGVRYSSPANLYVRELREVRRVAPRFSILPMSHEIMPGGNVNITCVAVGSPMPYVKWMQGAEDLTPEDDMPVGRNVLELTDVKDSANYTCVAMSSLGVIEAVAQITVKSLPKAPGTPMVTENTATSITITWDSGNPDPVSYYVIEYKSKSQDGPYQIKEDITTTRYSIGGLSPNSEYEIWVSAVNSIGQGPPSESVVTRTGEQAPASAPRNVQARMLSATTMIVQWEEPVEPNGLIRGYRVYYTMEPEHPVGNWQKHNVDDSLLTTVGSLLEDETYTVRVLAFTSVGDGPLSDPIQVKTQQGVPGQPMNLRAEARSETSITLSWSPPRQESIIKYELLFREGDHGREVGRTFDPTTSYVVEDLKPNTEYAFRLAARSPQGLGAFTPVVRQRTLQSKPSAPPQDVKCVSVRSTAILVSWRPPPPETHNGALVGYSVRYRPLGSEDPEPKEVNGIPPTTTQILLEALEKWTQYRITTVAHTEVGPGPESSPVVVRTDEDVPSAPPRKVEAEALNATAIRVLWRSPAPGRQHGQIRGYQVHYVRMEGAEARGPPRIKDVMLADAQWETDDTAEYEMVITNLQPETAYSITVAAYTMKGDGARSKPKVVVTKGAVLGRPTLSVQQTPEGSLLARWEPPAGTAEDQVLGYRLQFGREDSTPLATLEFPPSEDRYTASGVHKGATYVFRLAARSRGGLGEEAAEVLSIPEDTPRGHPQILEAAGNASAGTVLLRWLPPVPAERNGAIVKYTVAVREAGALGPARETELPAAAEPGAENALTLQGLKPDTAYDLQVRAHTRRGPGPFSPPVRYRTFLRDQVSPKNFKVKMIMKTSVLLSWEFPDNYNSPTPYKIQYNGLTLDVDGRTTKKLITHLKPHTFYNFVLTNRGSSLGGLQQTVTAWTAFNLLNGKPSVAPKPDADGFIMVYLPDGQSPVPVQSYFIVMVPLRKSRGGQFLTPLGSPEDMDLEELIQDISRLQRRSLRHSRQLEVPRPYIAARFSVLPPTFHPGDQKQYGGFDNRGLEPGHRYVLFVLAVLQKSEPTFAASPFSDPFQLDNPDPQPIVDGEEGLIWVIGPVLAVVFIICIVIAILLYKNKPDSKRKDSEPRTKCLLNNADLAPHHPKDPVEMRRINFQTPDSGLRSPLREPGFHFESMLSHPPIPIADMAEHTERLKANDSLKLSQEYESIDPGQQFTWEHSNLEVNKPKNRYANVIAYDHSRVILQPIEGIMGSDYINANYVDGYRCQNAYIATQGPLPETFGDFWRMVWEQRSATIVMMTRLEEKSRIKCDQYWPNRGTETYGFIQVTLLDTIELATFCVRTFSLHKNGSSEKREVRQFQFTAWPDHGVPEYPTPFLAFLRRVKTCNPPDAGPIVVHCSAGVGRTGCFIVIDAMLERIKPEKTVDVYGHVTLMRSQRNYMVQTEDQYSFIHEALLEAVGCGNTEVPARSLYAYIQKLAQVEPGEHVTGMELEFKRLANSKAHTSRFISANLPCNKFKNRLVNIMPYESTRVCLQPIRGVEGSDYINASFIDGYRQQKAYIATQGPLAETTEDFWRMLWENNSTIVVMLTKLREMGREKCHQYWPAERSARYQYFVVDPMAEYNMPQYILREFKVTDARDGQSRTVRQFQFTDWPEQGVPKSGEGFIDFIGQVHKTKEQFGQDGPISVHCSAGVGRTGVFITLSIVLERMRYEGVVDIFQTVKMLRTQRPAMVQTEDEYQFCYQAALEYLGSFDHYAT
UniProt Q15008: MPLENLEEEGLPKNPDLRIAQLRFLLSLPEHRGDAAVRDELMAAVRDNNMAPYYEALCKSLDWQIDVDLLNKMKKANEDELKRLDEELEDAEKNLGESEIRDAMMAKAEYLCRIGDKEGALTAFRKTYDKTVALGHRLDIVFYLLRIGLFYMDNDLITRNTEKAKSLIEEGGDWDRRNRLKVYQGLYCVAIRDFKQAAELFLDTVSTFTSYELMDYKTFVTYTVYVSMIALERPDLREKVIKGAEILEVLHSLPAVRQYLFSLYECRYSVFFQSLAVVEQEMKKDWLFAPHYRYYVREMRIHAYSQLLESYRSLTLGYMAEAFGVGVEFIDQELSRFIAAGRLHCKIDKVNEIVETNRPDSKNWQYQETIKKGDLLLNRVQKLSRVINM
UniProt P51665: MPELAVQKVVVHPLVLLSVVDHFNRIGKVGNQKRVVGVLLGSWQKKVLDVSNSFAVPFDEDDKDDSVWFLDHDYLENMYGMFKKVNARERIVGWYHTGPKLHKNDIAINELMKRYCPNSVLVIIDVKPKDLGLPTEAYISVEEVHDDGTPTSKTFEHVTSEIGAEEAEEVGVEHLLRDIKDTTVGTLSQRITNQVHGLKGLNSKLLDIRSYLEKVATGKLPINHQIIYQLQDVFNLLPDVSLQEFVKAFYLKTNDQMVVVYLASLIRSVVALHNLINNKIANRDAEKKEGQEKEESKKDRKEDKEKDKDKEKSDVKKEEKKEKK
UniProt Q00577: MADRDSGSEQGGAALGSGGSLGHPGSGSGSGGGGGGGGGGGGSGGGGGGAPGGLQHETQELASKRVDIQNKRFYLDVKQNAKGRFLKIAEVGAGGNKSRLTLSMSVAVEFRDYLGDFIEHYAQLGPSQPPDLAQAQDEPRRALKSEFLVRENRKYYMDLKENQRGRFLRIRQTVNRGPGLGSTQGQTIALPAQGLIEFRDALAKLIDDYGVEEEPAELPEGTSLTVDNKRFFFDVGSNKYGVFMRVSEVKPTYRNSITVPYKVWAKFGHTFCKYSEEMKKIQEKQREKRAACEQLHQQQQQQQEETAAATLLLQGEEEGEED
UniProt O43242, whole entry, looked up: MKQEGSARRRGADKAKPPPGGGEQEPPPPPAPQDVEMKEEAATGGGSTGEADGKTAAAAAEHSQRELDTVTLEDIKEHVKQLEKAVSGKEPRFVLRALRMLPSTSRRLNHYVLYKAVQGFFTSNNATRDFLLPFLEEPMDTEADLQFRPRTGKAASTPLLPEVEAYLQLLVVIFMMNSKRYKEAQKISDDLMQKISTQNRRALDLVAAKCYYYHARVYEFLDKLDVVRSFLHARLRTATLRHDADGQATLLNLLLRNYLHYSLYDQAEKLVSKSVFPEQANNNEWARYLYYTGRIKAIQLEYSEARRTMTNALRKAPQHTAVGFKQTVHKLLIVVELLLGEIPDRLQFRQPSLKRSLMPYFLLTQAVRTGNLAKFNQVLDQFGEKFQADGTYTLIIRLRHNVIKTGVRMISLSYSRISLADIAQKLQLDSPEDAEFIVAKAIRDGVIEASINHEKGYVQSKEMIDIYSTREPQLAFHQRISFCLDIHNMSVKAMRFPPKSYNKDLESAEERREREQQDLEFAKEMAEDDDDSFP
UniProt Q9H3S7: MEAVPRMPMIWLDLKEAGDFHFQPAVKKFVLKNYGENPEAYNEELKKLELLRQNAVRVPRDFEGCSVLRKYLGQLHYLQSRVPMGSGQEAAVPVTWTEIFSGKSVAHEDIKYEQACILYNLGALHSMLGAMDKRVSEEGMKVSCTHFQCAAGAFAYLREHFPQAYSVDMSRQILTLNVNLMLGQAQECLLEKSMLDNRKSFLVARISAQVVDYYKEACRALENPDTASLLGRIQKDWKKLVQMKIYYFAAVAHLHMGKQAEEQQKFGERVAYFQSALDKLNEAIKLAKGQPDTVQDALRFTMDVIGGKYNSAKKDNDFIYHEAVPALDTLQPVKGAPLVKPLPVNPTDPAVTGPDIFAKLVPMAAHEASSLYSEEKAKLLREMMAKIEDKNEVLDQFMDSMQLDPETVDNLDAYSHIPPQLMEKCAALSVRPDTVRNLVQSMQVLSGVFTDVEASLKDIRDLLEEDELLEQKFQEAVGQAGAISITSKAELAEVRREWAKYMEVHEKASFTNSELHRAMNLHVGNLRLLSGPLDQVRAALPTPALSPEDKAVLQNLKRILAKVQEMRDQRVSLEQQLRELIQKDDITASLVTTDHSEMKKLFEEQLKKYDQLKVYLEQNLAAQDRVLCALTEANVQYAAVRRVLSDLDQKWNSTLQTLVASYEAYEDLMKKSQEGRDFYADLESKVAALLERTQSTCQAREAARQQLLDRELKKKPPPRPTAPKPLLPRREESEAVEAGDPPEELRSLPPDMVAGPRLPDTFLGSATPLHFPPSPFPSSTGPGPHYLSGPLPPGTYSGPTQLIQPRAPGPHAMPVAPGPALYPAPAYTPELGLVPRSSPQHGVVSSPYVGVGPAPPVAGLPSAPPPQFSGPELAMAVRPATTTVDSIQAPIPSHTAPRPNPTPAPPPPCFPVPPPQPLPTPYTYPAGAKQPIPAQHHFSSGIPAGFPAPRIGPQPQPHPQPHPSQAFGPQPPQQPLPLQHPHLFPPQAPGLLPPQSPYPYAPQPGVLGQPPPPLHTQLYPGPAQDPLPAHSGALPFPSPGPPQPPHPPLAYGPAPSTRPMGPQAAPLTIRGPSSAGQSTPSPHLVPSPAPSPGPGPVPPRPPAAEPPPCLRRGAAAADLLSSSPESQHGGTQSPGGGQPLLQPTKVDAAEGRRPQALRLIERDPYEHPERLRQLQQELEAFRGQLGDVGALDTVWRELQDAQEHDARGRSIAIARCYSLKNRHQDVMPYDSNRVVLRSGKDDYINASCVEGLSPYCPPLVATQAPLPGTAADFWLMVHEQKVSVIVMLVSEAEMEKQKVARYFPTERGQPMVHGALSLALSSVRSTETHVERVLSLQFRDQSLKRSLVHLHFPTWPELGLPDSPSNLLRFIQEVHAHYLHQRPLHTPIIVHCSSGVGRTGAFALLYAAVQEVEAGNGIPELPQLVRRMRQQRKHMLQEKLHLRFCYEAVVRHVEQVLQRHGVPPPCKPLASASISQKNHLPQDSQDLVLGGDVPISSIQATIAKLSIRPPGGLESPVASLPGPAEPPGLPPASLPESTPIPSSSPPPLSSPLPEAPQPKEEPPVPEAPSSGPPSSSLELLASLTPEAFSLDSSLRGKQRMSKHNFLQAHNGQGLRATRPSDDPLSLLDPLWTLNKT
UniProt Q9UNM6: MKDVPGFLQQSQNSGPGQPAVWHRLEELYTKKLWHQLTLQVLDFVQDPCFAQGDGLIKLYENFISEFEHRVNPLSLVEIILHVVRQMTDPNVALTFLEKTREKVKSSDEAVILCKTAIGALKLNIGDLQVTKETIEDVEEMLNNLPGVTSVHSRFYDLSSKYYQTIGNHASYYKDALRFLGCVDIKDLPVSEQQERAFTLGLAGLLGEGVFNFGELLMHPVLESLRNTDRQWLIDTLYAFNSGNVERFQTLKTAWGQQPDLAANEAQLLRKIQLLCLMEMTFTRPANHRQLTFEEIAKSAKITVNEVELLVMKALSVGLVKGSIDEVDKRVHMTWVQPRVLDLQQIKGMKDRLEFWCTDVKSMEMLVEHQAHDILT
UniProt P62333, whole entry, looked up: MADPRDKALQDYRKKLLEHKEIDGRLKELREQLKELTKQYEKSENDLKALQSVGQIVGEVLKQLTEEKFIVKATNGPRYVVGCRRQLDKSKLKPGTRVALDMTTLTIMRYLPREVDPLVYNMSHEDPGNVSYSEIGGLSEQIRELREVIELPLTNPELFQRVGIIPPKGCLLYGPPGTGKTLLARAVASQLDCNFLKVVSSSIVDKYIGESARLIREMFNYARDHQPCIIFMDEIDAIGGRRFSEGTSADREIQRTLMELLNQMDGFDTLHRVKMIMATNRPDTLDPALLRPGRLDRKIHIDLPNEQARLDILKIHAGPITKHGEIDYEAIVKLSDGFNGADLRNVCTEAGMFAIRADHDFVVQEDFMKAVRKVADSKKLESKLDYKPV
UniProt Q9BRQ0: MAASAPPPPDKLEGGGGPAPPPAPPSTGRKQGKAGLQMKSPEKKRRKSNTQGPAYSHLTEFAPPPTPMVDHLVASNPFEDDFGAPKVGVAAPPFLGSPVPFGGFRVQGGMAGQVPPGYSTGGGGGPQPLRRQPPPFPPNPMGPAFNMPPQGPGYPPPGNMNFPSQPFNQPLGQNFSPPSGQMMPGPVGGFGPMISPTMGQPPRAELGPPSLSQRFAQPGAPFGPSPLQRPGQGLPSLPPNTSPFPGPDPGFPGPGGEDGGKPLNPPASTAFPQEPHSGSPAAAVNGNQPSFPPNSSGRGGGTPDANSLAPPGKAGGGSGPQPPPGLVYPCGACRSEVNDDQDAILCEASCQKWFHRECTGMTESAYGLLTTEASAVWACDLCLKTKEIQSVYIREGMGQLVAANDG

How the values were obtained:
Experiment in all cases: log2 fold change, soluble protein after heating vs DMSO (PISA); higher = thermal stabilisation; K562 cells, 10 uM, 30 min; active = over 0.2 and 3.5 SD of the protein, either way, in both replicates (recomputed)
[1] = compound: CN1CCN(CCOc2cc(OC3CCOCC3)c3c(Nc4c(Cl)ccc5c4OCO5)ncnc3c2)CC1 [saracatinib]
Summary of the method: (§1)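 Soluble protein was quantified by TMTpro 16plex LC-MS/MS after channel sums were equalised. It was obtained as the supernatant after 21,000xg for 90 min from pooled aliquots of K562 cells (2×10^6 cells/mL, 10 μM compound, 30 min) heated for 3 min across 48°C-58°C and extracted in PBS with 0.5% NP-40 at 4°C. Thermal stability values are relative to control samples and come from duplicates. They are given as log2 fold changes.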

[2] = compound: CN1CCN(c2nc(C3=C(c4c[nH]c5ccccc45)C(=O)NC3=O)c3ccccc3n2)CC1 [sotrastaurin]
Summary of the method: as §1

[3] = compound: CN1CCc2c(c3ccccc3n2Cc2ccc(C(=O)NO)cc2)C1 [Tubastatin A]
Summary of the method: as §1

[4] = compound: CNC(=O)c1ccc(Nc2ncc(C(F)(F)F)c(NCc3nccnc3N(C)S(C)(=O)=O)n2)cc1 [defactinib]
Summary of the method: as §1

[5] = compound: CNCc1ccc(-c2[nH]c3cc(F)cc4c3c2CCNC4=O)cc1 [rucaparib]
Summary of the method: as §1

[6] = compound: CNc1nc(-c2ccc3c(N)n[nH]c3c2)cc(N2C[C@@H](C(=O)NC3CCCCC3)CC[C@H]2C)n1
Summary of the method: as §1

[7] = compound: COC(=O)N[C@@H](C)CNc1nccc(-c2cn(C(C)C)nc2-c2cc(Cl)cc(NS(C)(=O)=O)c2F)n1 [encorafenib]
Summary of the method: as §1

[8] = compound: COC(=O)[C@H](CCSC)NC(=O)C1=C(C=C(C=C1)NC[C@H](CS)N)C2=CC=CC=C2
Summary of the method: as §1

[9] = compound: CNC(=O)C1=CC=CC=C1NC2=NC(=NC=C2Cl)NC3=C(C=C(C=C3)N4CCOCC4)OC
Summary of the method: as §1

Measured: log2 fold change

PSMB5 isoform 3 (UniProt P28074)
inactive: [1] -0.158 | [2] 0.152 | [3] -0.011 | [4] 0.065 | [5] 0.058 | [6] 0.007 | [7] -0.206 | [8] 0.058

PYGB (UniProt P11216)
active: [9] -0.391
inactive: [1] 0.012 | [2] -0.142 | [3] -0.003 | [4] -0.091 | [5] -0.004 | [6] -0.042 | [7] 0.024 | [8] -0.009

PTPRS (UniProt Q13332)
inactive: [1] 0.036 | [2] -0.138 | [9] 0.009 | [4] -0.192 | [6] -0.132 | [8] 0.13

R3HDM1 isoform 2 (UniProt Q15032)
inactive: [1] -0.154 | [2] -0.16 | [3] 0.05 | [9] -0.111 | [4] -0.07 | [5] 0.184 | [6] 0.121 | [7] -0.004 | [8] 0.049

PSMD6 (UniProt Q15008)
inactive: [1] -0.044 | [2] -0.035 | [3] 0.025 | [9] 0.013 | [4] 0.046 | [5] 0.051 | [6] 0.062 | [7] 0.056 | [8] -0.021

PSMD7 (UniProt P51665)
inactive: [1] -0.018 | [2] -0.028 | [3] 0.001 | [9] 0.015 | [4] 0.079 | [5] 0.063 | [6] 0.022 | [7] 0.03 | [8] 0.017

PURA (UniProt Q00577)
inactive: [1] 0.061 | [2] 0.063 | [3] 0.001 | [9] 0.059 | [4] 0.347 | [5] 0.309 | [6] 0.076 | [7] 0.086 | [8] 0.04

PUM1 isoform 3 (UniProt Q14671)
inactive: [1] -0.01 | [2] -0.023 | [3] 0.004 | [9] -0.019 | [4] -0.078 | [5] 0.082 | [6] -0.039 | [7] -0.01 | [8] 0.001

PSMD11 (UniProt O00231)
inactive: [1] -0.065 | [2] -0.051 | [3] 0.077 | [9] 0.013 | [4] 0.059 | [5] 0.039 | [6] 0.041 | [7] 0.042 | [8] -0.05

PSMB2, A0A087WVV1
inactive: [1] 0.004 | [2] -0.103 | [9] -0.071 | [4] -0.031 | [5] -0.434 | [6] -0.012 | [7] 0.102 | [8] 0.028

PSMD3 (UniProt O43242)
inactive: [1] -0.06 | [2] -0.015 | [3] 0.016 | [9] 0.007 | [4] 0.083 | [5] 0.037 | [6] 0.051 | [7] 0.031 | [8] 0.003

PTPN23 (UniProt Q9H3S7)
inactive: [1] -0.007 | [2] -0.13 | [3] 0.112 | [9] 0.055 | [4] -0.169 | [5] 0.074 | [6] -0.055 | [7] 0.043 | [8] -0.023

PTK2B (UniProt Q14289)
inactive: [1] 0.163 | [2] -0.104 | [3] 0.078 | [9] 0.309 | [4] 0.36 | [6] -0.034 | [8] -0.155

PSMD13 (UniProt Q9UNM6)
inactive: [1] -0.073 | [2] 0 | [3] 0.038 | [9] 0.027 | [4] 0.068 | [5] 0.024 | [6] 0.043 | [7] 0.063 | [8] 0.003

PSME4 (UniProt Q14997)
inactive: [1] -0.006 | [2] -0.035 | [3] 0.025 | [9] -0.027 | [4] 0.037 | [5] -0.023 | [6] 0.067 | [7] 0.066 | [8] -0.029

PSMC6 (UniProt P62333)
inactive: [1] -0.01 | [2] 0.015 | [3] -0.025 | [9] -0.003 | [4] 0.079 | [5] 0.04 | [6] 0.009 | [7] 0.035 | [8] 0.026

PYGO2 (UniProt Q9BRQ0)
inactive: [2] -0.076 | [9] -0.132 | [4] -0.333 | [5] 0.077 | [7] 0.059 | [8] -0.065
